Results from PubChem BioAssay AID485314 (National Center for Advancing Translational Sciences (NCATS), 2010).
Several values for one entry are separate records, joined by “and”; a condition that tells them apart may be missing. Equal entries are not always repeated. Among all 340,000 compounds or so, about 4,500 (1.3%) were called active. The inconclusive results got no clear call from the source; some entries with a clear call stand among them for comparison. Calls come from the whole dose curve; as a rule, active = well fitted inhibition curve with a large enough effect; inconclusive = small, poorly fitted or top-dose-only effect, or another doubt; inactive = no such curve, though single readings can be large or run the other way. A potency beside an inconclusive call is a rough fit, not a confirmed value. Where a structure was tested more than once in an assay, its records may differ in their call.

target: DNA polymerase beta (Homo sapiens) (UniProt P06746); assay: qHTS Assay for Inhibitors of DNA Polymerase Beta; conditions: Pol beta primer extension/strand displacement, fluorescence kinetic; activity change, negative = inhibition: at 114 µM (top of the series)
Procedure, shortened: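 Pol beta (10 nM) and compounds were preincubated 15 min at room temperature, then 50 nM substrate (final) started primer extension/strand displacement. Reads were taken at 0 and 10 min; concentration-response data were fitted to a four-parameter Hill equation.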
% is set by controls: 0 for no effect and ±100 for the full control effect; potency is the fitted concentration of half-maximal effect.

Activity change, negative = inhibition, inconclusive:
CCOC(=O)c1ccc(NC(=O)C(CC)Sc2nncn3c2cc2oc(C)cc23)cc1 (centres undefined) -32.5% [inhibitor]
CC(=O)Nc1ccc(NC(=O)CSc2nc(N)c(NC(=O)c3ccccc3F)c(=O)[nH]2)cc1 -67.6% [inhibitor]

Activity change, negative = inhibition, inactive:
COCc1nnc(NC(=O)COc2ccc3c(c2)OCO3)s1 23.3%
COc1cc2c(cc1OC)C(C)N(C(=O)CCc1c[nH]c3ccccc13)CC2 (centres undefined) -6.11%
Cn1cc(-c2cc3n(n2)CCC(=O)N3CCCC(=O)NCc2ccccc2)c2ccccc21 -0.47%
COCC(=O)Nc1sc2c(c1C(=O)OC)CCCC2 -22.7%
Cc1ccccc1OCC(=O)Nc1nnc(S(=O)(=O)N(C)c2ccccc2)s1 2.03%
COc1ccccc1N1CCN(C(=O)c2cc3c(=O)n(Cc4cccnc4)ccc3nc2C)CC1 -14.5%
c1ccc2c(OCCCCN3CCOCC3)cccc2c1 17.9%
COc1cccc(OCc2cc(C3Nc4ccccc4C(=O)N3Cc3ccco3)ccc2OC)c1 (centres undefined) 5.83%
COc1ccc(N(C)C(=O)c2oc(=O)c3ccccc3c2-c2ccccc2)c(OC)c1 -14.3%
COc1ccc(-c2nc(SCC(=O)NCc3ccco3)c(-c3ccccc3)[nH]2)cc1OC -19.7%
CC1=Nc2ccccc2/C1=C\c1nc(-c2ccc(C(F)(F)F)cc2)oc1O 15.7%
Cc1cc(=S)[nH]c2c(C)cccc12 14.1%
CC(C)(C)OC(=O)N1CCC(c2c(C(=O)NCc3ccccn3)cnn2-c2ccccc2Cl)CC1 50.5%
COC(=O)CCC(=O)Nc1cccc(Br)c1 -0.261%
Cc1ccc(N2CC(NC(=O)Cc3ccc(F)cc3)CC2=O)cc1C (centres undefined) -4.37%
Cc1ccc(C2Nc3ccccc3C(=O)N2Cc2ccco2)cc1 (centres undefined) -0.153%

Potency, active:
CC1CC(=O)c2c(cc3c(-c4c(O)cc(O)c5c(O)c6c(cc45)OC(C)CC6=O)c(O)cc(O)c3c2O)O1 (centres undefined) 17.8 µM
COc1ccc2cc3cc(C(=O)NC4CC4)sc3nc2c1 79.4 µM
O=C(O)Cc1c[nH]c2cccc(O)c12 17.8 µM
CC(=O)N(\C=C/C=C/C=C1\Sc2ccccc2C1=O)c1ccccc1 20 µM
COc1cc(-c2cc(=O)c3c(O)c(OC)c(OC)cc3o2)cc(OC)c1O 28.2 µM
COc1cccc(CNC(=O)C2CCN(c3ncnc4c3nc3n4CCCCC3)CC2)c1 100 µM
O=C(CSc1nnc(-c2ccco2)o1)c1ccccc1 39.8 µM
O=C(OCc1cc(=O)n2c(n1)sc1ccccc12)c1ccc(O)cc1 10 µM
CCc1ccccc1N(CC(=O)NCc1ccco1)C(=O)c1snc(C(N)=O)c1N 50.1 µM
N/C(=N\OC(=O)c1ccc(Br)cc1)c1cccc([N+](=O)[O-])c1 17.8 µM

Potency, inconclusive:
CC(=O)c1ccc(N2CCN(S(=O)(=O)c3ccc(-c4cnc(C5CC5)o4)cc3)CC2)cc1 39.8 µM [inhibitor, partial curve] and 50.1 µM [inhibitor, single point]
CNC(=O)c1cc(Nc2nnc(C)c3ccccc23)ccc1OC 50.1 µM [inhibitor, partial curve]
CCCOC(=O)c1ccc(O)c(OC)c1 100 µM [inhibitor, single point]
O=C(N/N=C/C(Br)=C/c1ccccc1)c1ccc([N+](=O)[O-])cc1 89.1 µM [inhibitor, single point]
CCOC(=O)c1c(NC(=O)C2C3C=CC(CC3)C2C(=O)O)sc(C)c1CC (centres undefined) 17.8 µM [inhibitor, single point]
CCOc1ccc(C(=O)Nc2ccc(Cl)c(-c3nc4cc(C)cc(C)c4o3)c2)cc1 35.5 µM [inhibitor, single point]
Cc1cc2ccccc2c(=O)n1CC(=O)NCCC1=CCCCC1 25.1 µM [inhibitor, full curve, poor fit]
O=C(N/N=C/c1cccc2ccccc12)c1cc2ccccc2o1 14.1 µM [inhibitor, partial curve]
Cc1ccc(NC(=O)CCS(=O)(=O)c2cc3[nH]c(=O)c(=O)[nH]c3cc2C)cc1 0.0794 µM [inhibitor, full curve]
Cc1nc(SCC(=O)NCc2ccco2)[nH]c(=O)c1C 50.1 µM [inhibitor, partial curve]
O=C(Nc1ccc(Cl)cc1C(F)(F)F)c1cc(S(=O)(=O)NCc2ccccc2)ccc1F 89.1 µM [inhibitor, single point]
C[C@H](NC(=O)N1CCC(Cc2ccccc2)CC1)C(=O)O 0.141 µM [inhibitor, full curve, poor fit]
CCOC(=O)c1cc(C#N)c(SCC(N)=O)[nH]c1=O 50.1 µM [inhibitor, partial curve, poor fit]
COc1cc(/C=N/NC(=O)c2cccc(NC(=O)c3ccccc3Cl)c2)ccc1O 63.1 µM [inhibitor, single point]
Cc1noc(C)c1S(=O)(=O)Nc1ccc(C(=O)N2CCN(c3cccc(Cl)c3)CC2)cc1 89.1 µM [inhibitor, single point]
CC(C)c1nnc(NC(=O)c2ccc(N3C(=O)CCC3=O)cc2)s1 89.1 µM [inhibitor, single point]
O=C(O)C1CCN(c2c([N+](=O)[O-])cc(C(F)(F)F)cc2[N+](=O)[O-])CC1 112 µM [inhibitor, partial curve, poor fit]
Oc1ccc(-c2cccc(-c3ccc(O)cc3)n2)cc1 35.5 µM [inhibitor, partial curve, poor fit]
CC1=C(C(=O)OCc2ccccc2)C(c2cccnc2)n2nnnc2N1 (centres undefined) 3.16 µM [inhibitor, single point]
Cc1cccc(-c2ncc(CN3CCCC(CO)(Cc4cccc(Cl)c4)C3)cn2)c1 (centres undefined) 63.1 µM [inhibitor, single point]
COc1ccc(/C=C/C(=O)O)cc1S(=O)(=O)N1CCc2ccccc2C1 44.7 µM [inhibitor, partial curve]
CCOc1ccc(NS(=O)(=O)c2ccc3[nH]cc(C(=O)NCCc4ccccc4)c(=O)c3c2)cc1 17.8 µM [inhibitor, full curve, poor fit]
FC(F)(F)c1cc(-c2ccco2)nc(NCc2ccccc2)n1 25.1 µM [inhibitor, full curve, poor fit]
CCOc1ccc(-c2nnc3sc(COc4ccc(Cl)cc4)nn23)cc1 35.5 µM [inhibitor, partial curve]
CN(C)CCN(C(=O)c1ccc(N2C(=O)CCC2=O)cc1)c1nc2cc3c(cc2s1)OCCO3 56.2 µM [inhibitor, partial curve, poor fit]
O=C(OCc1nnc(-c2ccccc2)o1)c1ccc2c(c1)OCO2 89.1 µM [inhibitor, single point]
Cc1cc(-c2ccc(C)c(S(=O)(=O)NCCc3ccccc3)c2)on1 89.1 µM [inhibitor, single point]
COc1ccc(-c2cn3c(n2)sc2cc(C(=O)NC4CCCCC4)ccc23)cc1 44.7 µM [inhibitor, partial curve]
Cc1cc(NC(=O)c2ccc([N+](=O)[O-])o2)ccc1NC(=O)c1ccco1 12.6 µM [inhibitor, single point]
N=C(N)n1c(N)nc2ccccc2c1=O 8.91 µM [inhibitor, partial curve]
CSc1cccc(NS(=O)(=O)c2ccc3[nH]cc(C(=O)N4CCCCCC4)c(=O)c3c2)c1 89.1 µM [inhibitor, single point]
Cc1ccc(-c2nc(S(=O)(=O)c3ccc(C)cc3)c(N3CCOCC3)o2)cc1 44.7 µM [inhibitor, partial curve]
CCCc1ccc(OCc2nc(-c3ccc(NC(=O)c4cccs4)cc3)no2)cc1 39.8 µM [inhibitor, single point]
CC(C)c1ccc(-c2noc(SCC(=O)N3CCCCC3)n2)cc1 89.1 µM [inhibitor, single point]
COc1cc(/C=C(\C#N)c2nc3c(s2)CCCC3)ccc1O 0.126 µM [inhibitor, full curve, poor fit]
O=c1[nH]c(CSc2nnc(-c3ccco3)n2-c2ccccc2)nc2sc3c(c12)CCC3 15.8 µM [inhibitor, full curve, poor fit]
Cc1[nH]c2ccccc2c1CCCO 0.316 µM [inhibitor, full curve, poor fit]
COc1ccc(S(=O)(=O)Nc2cc(SCC(=O)O)c(O)c3ccccc23)cc1 89.1 µM [inhibitor, single point]
Cc1[nH]c2ccccc2c1CN1CCC(CO)(Cc2ccccc2)CC1 7.94 µM [inhibitor, full curve]
COc1cc(C2Nc3ccccc3-c3nnc(SCc4ccc(Cl)cc4)nc3O2)ccc1OCC(=O)O (centres undefined) 20 µM [inhibitor, single point]
Cc1cc(OCC(=O)NNC(=O)CCc2ccccc2)ccc1Br 89.1 µM [inhibitor, single point]

Fetched by structure from the list above:
Potency, inconclusive:
Cc1cc(-c2ccc(C)c(S(=O)(=O)NCCc3ccccc3)c2)on1 89.1 µM [inhibitor, single point]
Cc1[nH]c2ccccc2c1CN1CCC(CO)(Cc2ccccc2)CC1 7.94 µM [inhibitor, full curve]
Cc1ccc(NC(=O)CCS(=O)(=O)c2cc3[nH]c(=O)c(=O)[nH]c3cc2C)cc1 0.0794 µM [inhibitor, full curve]
O=C(N/N=C/c1cccc2ccccc12)c1cc2ccccc2o1 14.1 µM [inhibitor, partial curve]
COc1cc(/C=C(\C#N)c2nc3c(s2)CCCC3)ccc1O 0.126 µM [inhibitor, full curve, poor fit]
